Laboratory results reported in publication doi:10.1101/2022.10.06.511211.
No constants are given. Whether binding was seen depends on the method and setting. In cells and extracts the contact can be indirect. Here binding means that the protein was enriched with, or labelled near, the bait; the list need not be complete. For some assays here: No binding means not detected with the bait. Sequences can lack the tags named with a protein.

T1: Syngap1:1-744 (truncated at exon 13, TurboID-HA fusion) (mouse (endogenous in forebrain)) (UniProt F6SEU4)
T1 sequence: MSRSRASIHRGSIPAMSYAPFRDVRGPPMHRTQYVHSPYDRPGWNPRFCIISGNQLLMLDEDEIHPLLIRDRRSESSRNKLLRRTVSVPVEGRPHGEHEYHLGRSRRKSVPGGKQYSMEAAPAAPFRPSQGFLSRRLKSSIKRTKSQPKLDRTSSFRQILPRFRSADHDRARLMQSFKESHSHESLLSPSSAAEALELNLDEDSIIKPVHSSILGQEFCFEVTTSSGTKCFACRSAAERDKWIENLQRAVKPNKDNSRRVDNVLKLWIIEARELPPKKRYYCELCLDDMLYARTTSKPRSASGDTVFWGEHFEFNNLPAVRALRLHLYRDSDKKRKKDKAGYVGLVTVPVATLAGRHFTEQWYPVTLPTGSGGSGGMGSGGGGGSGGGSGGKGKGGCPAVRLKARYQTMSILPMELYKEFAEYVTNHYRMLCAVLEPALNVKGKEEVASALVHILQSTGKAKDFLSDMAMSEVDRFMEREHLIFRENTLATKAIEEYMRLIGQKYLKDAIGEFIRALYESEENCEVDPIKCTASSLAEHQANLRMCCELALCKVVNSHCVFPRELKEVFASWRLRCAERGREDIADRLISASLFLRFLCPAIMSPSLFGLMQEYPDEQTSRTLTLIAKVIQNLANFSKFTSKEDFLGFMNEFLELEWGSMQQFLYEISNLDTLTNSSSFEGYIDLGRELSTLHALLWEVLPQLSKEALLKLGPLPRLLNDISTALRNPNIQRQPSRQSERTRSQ

T2: Anks1b (mouse, endogenous, TurboID-HA knock-in) (mouse (endogenous in forebrain)) (UniProt Q8BIZ1)
T2 sequence: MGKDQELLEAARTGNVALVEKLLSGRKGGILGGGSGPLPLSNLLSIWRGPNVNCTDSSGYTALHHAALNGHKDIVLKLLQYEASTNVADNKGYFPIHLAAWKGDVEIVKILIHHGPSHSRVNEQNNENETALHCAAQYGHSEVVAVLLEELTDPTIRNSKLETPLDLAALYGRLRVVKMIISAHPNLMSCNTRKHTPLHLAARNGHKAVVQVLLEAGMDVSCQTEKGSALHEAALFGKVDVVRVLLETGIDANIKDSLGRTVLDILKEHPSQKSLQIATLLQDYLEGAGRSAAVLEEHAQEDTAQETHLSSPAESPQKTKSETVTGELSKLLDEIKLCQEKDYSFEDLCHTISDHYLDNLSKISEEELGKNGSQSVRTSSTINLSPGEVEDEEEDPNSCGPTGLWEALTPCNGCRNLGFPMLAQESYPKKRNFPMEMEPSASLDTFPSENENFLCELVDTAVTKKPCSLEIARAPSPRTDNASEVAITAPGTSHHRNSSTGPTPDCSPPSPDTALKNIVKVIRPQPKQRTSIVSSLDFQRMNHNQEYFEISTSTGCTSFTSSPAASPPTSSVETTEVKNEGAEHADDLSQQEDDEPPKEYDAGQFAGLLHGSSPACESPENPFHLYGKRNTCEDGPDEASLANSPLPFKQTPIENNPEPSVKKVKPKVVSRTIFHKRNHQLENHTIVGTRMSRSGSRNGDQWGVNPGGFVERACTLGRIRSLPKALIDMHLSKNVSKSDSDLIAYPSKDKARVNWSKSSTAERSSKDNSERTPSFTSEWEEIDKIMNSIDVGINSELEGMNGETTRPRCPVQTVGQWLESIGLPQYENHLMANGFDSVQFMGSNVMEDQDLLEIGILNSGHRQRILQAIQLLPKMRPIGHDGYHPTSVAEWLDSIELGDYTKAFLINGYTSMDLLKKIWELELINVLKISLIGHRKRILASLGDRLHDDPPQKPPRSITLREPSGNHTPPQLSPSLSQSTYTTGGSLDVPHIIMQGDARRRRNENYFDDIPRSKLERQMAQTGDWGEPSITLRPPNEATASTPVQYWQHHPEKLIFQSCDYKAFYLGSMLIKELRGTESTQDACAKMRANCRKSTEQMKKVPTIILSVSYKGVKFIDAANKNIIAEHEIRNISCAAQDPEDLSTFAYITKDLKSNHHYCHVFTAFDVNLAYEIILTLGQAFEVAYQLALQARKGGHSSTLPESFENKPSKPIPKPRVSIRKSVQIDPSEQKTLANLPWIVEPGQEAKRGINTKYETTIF


Assays:
Test in all cases: proximity labelling
[1] = biological target: Syngap1 (mouse, endogenous, TurboID-HA knock-in) (mouse (endogenous in forebrain)) (UniProt F6SEU4)
[2] = biological target: T1, Syngap1:1-744 (truncated at exon 13, TurboID-HA fusion) (mouse (endogenous in forebrain))
[3] = biological target: T2, Anks1b (mouse, endogenous, TurboID-HA knock-in) (mouse (endogenous in forebrain))

binding [1]	binding [2]	binding [3]	Binder
binds	binds		Dlg3 (protein, UniProt P70175 1-849) MHKHQHCCKCPECYEVTRLAALRRLEPPGYGDWQVPDPYGPSGGNGASSGYGGYSSQTLPSQAGATPTPRTKAKLIPTGRDVGPVPPKPVPGKSTPKLNGSGPGWWPECTCTNRDWYEQASPAPLLVNPEALEPSLSVNGSDGMFKYEEIVLERGNSGLGFSIAGGIDNPHVPDDPGIFITKIIPGGAAAMDGRLGVNDCVLRVNEVDVSEVVHSRAVEALKEAGPVVRLVVRRRQPPPETIMEVNLLKGPKGLGFSIAGGIGNQHIPGDNSIYITKIIEGGAAQKDGRLQIGDRLLAVNNTNLQDVRHEEAVASLKNTSDMVYLKVAKPGSIHLNDMYAPPDYASTFTALADNHISHNSSLGYLGAVESKVTYPAPPQVPPTRYSPIPRHMLAEEDFTREPRKIILHKGSTGLGFNIVGGEDGEGIFVSFILAGGPADLSGELRRGDRILSVNGVNLRNATHEQAAAALKRAGQSVTIVAQYRPEEYSRFESKIHDLREQMMNSSMSSGSGSLRTSEKRSLYVRALFDYDRTRDSCLPSQGLSFSYGDILHVINASDDEWWQARLVTPHGESEQIGVIPSKKRVEKKERARLKTVKFHARTGMIESNRDFPGLSDDYYGAKNLKGVTSNTSDSESSSKGQEDAILSYEPVTRQEIHYARPVIILGPMKDRVNDDLISEFPHKFGSCVPHTTRPRRDNEVDGQDYHFVVSREQMEKDIQDNKFIEAGQFNDNLYGTSIQSVRAVAERGKHCILDVSGNAIKRLQQAQLYPIAIFIKPKSIEALMEMNRRQTYEQANKIFDKAMKLEQEFGEYFTAIVQGDSLEEIYNKIKQIIEDQSGHYIWVPSPEKL
binds	binds		Prickle1 (protein, UniProt Q3U5C7 1-832) MPLEMEPKMSKLVFGCQRSSTSDDDSGCALEEYAWVPPGLRPEQIQLYFACLPEEKVPYVNSPGEKHRIKQLLYQLPPHDNEVRYCQSLSEEEKKELQVFSAQRKKEALGRGTIKLLSRAVMHAVCEQCGLQMNGGEVAVFASRAGPGVCWHPSCFVCFTCNELLVDLIYFYQDGKIHCGRHHAELLKPRCSACDEIIFADECTEAEGRHWHMKHFCCLECETVLGGQRYIMKDGRPFCCGCFESLYAEYCETCGEHIGVDHAQMTYDGQHWHATEACFSCAQCKASLLGCPFLPKQGQIYCSKTCSLGEDIHASDSSDSAFQSARSRDSRRSVRMGRSSRSADQCRQSLLLSPALNYKFPGLSGNADDTLSRKLDDVSLASRQGAGFANEEFWKARVEQEASEDPEEWAEHEDYMTQLLLKFGDKNLFQQQSSEVDPRASEHWIPDNMVTNKPEVKPNHQGLASKKYQSDMYWAQSQDGLGDSAYGSHPGPASSRRLQELDLDHGAAGYTHDQSQWYEDSLECLSDLKPEQSIRDSMDSLALSNITGASVDGESKPRPSLYSLQNFEEIEAEDCEKMSNMGTLNSSMLHRSAESLQSLNSGLCPEKILPEEKPAHLPVLRRSKSQSRPQQVKFSDDVIDNGSYDIEIRQPPMSERTRRRAYHFEERGSRPHHHRHRRSRKSRSDNALNLVTERKYSAKDRLRLYTPDNYEKFIQNKSARELQAYMQNANLYSQYAHATSDYALQNPGMNRFLGLCGEDDDSWCSSSTSSSDSEEEGYFLGQPIPQPRPQRFTYYTDDLSSPASALPTPQFTQRTTKSKKKKGHKGKNCIIS

Continued, binder first:

Binder	binding [1]	binding [2]	binding [3]
Cdkl5 (enzyme, UniProt Q3UTQ8 1-938) MKIPNIGNVMNKFEILGVVGEGAYGVVLKCRHKETHEIVAIKKFKDSEENEEVKETTLRELKMLRTLKQENIVELKEAFRRRGKLYLVFEYVEKNMLELLEEMPNGVPPEKVKSYIYQLIKAIHWCHKNDIVHRDIKPENLLISHNDVLKLCDFGFARNLSEGNNANYTEYVATRWYRSPELLLGAPYGKSVDMWSVGCILGELSDGQPLFPGESEIDQLFTIQKVLGPLPSEQMKLFYSNPRFHGLRFPAVNHPQSLERRYLGILNSVLLDLMKNLLKLDPADRYLTEQCLNHPTFQTQRLLDRSPSRSTKRKPYHVESSTLSNRNQSTKGAALQTHHRSNSKDIQNLSVGLPRAEEGLPANESFLNGNLAGATLSPMHTKTYQASTQPGSSSKDLTNNNIPHLLSPKEAKSKTEFDFNIDTKPSEGPGTKYLKSSTRSQQNRHSFMESSQSKAGTLQPSEKQSRHSYIDTIPQSSRSPSYRTKAKSHGALSDSKSVSNLSEARAQITETNTSRYFPSSCLDLNSPTSPTPTRHTDTRTLLSPSGRNNRNEGTLDSRRTTTRHSKTMEELKLPEHMDSSHSHSLSAPHESFSYGLGYTSPFSSQQRPHRHSMYVTRDKVRAKGLDGSLSIGQGMAARANSLQLLSPQPGEQLPPEMTVARPSVKESSREGASSFHTRQKSEGGVYHDPHSDDGTAPKENRHLYNDPVPRRVGSFYRVPSPRPDNSFHENNVSTRVSSLPSDSSSGTNHSKRQPGFDPWKSPENISHADQLKEKEKQGFFRSMKKKKKKTQTVPNTDGPDLLTLQKAIHSSSTASSRPKEWRPEKLSDLQTQSQPLKSLRKLLHLSSSTNHPASSDPRFQPLTAQQAKNSFSEIRIHPLSQATGGSSNIRQEPTPKGRPALQLPGSSLLRYNGWKHSRSRSSQPDEVIFLASHEKWKQ	binds		binds
Anks1b (mouse, endogenous, TurboID-HA knock-in) (protein, UniProt Q8BIZ1 1-1259) MGKDQELLEAARTGNVALVEKLLSGRKGGILGGGSGPLPLSNLLSIWRGPNVNCTDSSGYTALHHAALNGHKDIVLKLLQYEASTNVADNKGYFPIHLAAWKGDVEIVKILIHHGPSHSRVNEQNNENETALHCAAQYGHSEVVAVLLEELTDPTIRNSKLETPLDLAALYGRLRVVKMIISAHPNLMSCNTRKHTPLHLAARNGHKAVVQVLLEAGMDVSCQTEKGSALHEAALFGKVDVVRVLLETGIDANIKDSLGRTVLDILKEHPSQKSLQIATLLQDYLEGAGRSAAVLEEHAQEDTAQETHLSSPAESPQKTKSETVTGELSKLLDEIKLCQEKDYSFEDLCHTISDHYLDNLSKISEEELGKNGSQSVRTSSTINLSPGEVEDEEEDPNSCGPTGLWEALTPCNGCRNLGFPMLAQESYPKKRNFPMEMEPSASLDTFPSENENFLCELVDTAVTKKPCSLEIARAPSPRTDNASEVAITAPGTSHHRNSSTGPTPDCSPPSPDTALKNIVKVIRPQPKQRTSIVSSLDFQRMNHNQEYFEISTSTGCTSFTSSPAASPPTSSVETTEVKNEGAEHADDLSQQEDDEPPKEYDAGQFAGLLHGSSPACESPENPFHLYGKRNTCEDGPDEASLANSPLPFKQTPIENNPEPSVKKVKPKVVSRTIFHKRNHQLENHTIVGTRMSRSGSRNGDQWGVNPGGFVERACTLGRIRSLPKALIDMHLSKNVSKSDSDLIAYPSKDKARVNWSKSSTAERSSKDNSERTPSFTSEWEEIDKIMNSIDVGINSELEGMNGETTRPRCPVQTVGQWLESIGLPQYENHLMANGFDSVQFMGSNVMEDQDLLEIGILNSGHRQRILQAIQLLPKMRPIGHDGYHPTSVAEWLDSIELGDYTKAFLINGYTSMDLLKKIWELELINVLKISLIGHRKRILASLGDRLHDDPPQKPPRSITLREPSGNHTPPQLSPSLSQSTYTTGGSLDVPHIIMQGDARRRRNENYFDDIPRSKLERQMAQTGDWGEPSITLRPPNEATASTPVQYWQHHPEKLIFQSCDYKAFYLGSMLIKELRGTESTQDACAKMRANCRKSTEQMKKVPTIILSVSYKGVKFIDAANKNIIAEHEIRNISCAAQDPEDLSTFAYITKDLKSNHHYCHVFTAFDVNLAYEIILTLGQAFEVAYQLALQARKGGHSSTLPESFENKPSKPIPKPRVSIRKSVQIDPSEQKTLANLPWIVEPGQEAKRGINTKYETTIF	binds	no binding	
